In publication PMC5505202:
Results are given in words; binding and its absence hold for the method and conditions named. In cells and extracts the contact can be indirect. Some entries that bind do so weakly or less than the wild type. Tags and fused reporters may be left off the sequences shown.

Amino acid sequences for entries named in this document (tags omitted).
UniProt Q04741: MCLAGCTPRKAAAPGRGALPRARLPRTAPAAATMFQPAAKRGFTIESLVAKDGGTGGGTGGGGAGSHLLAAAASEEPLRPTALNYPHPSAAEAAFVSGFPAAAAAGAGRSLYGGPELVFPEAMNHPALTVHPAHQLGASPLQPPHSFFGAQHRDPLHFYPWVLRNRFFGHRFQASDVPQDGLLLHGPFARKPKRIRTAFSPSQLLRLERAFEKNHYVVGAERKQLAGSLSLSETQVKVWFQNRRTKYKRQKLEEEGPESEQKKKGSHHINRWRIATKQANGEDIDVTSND

Molecular target: T1, Myc-tagged WDR11, wild type (human) (UniProt Q9BZH6)
T1 sequence: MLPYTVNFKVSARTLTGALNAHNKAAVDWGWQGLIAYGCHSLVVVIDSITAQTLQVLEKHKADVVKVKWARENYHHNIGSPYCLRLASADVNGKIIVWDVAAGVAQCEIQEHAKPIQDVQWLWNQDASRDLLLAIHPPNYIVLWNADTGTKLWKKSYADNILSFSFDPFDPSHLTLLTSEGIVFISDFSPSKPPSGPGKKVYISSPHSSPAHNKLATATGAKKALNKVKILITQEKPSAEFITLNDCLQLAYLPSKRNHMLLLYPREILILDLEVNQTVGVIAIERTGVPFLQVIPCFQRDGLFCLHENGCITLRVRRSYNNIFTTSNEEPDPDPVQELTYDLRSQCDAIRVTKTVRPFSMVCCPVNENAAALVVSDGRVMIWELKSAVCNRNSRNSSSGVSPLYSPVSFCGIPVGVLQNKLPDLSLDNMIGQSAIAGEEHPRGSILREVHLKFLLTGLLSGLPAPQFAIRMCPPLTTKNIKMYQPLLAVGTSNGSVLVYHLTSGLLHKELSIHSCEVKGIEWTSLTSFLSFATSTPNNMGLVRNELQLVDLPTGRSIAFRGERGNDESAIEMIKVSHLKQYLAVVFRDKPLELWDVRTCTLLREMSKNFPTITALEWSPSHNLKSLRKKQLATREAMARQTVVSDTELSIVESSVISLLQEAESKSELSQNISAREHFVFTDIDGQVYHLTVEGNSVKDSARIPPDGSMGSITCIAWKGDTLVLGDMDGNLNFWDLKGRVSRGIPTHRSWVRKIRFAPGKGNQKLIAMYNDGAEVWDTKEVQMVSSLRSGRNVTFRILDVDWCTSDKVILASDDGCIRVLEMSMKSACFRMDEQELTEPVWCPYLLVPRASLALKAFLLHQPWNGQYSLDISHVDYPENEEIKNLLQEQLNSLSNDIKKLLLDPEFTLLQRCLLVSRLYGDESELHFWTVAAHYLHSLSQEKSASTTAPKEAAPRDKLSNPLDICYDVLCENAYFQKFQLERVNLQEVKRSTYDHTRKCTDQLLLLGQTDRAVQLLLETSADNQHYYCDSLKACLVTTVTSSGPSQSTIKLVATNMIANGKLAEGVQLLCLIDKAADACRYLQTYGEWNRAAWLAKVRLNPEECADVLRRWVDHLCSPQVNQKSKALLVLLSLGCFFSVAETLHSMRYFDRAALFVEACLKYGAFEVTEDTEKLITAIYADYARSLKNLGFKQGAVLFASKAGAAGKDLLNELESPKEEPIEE
Assay: co-IP; Myc-WDR11 (WT or c.1306A>G) coexpressed with HA-EMX1 in HEK293T; lysis buffer 50 mM HEPES, 150 mM NaCl, 10% glycerol, 1% Nonidet P-40, 1 mM EDTA; precipitated with anti-Myc antibody and protein A/G-agarose overnight at 4°C; blot with anti-EMX1

Substance: hemagglutinin-tagged EMX1 (from UniProt Q04741 1-290)
- binding: binds
